From the supplement of paper PMC11732987, “Enantioselective OTUD7B fragment discovery through chemoproteomics screening and high-throughput optimisation” (Communications Chemistry, 2025) come the findings set out here.

Chains of the proteins cited; added tags and fusions are not shown. Lines headed by an entry give the natural chain unless they say otherwise; changes in a name come on top. Residues count along the entry.
UniProt Q9UPU5, 1-24: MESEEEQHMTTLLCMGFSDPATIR
UniProt Q9UPT9: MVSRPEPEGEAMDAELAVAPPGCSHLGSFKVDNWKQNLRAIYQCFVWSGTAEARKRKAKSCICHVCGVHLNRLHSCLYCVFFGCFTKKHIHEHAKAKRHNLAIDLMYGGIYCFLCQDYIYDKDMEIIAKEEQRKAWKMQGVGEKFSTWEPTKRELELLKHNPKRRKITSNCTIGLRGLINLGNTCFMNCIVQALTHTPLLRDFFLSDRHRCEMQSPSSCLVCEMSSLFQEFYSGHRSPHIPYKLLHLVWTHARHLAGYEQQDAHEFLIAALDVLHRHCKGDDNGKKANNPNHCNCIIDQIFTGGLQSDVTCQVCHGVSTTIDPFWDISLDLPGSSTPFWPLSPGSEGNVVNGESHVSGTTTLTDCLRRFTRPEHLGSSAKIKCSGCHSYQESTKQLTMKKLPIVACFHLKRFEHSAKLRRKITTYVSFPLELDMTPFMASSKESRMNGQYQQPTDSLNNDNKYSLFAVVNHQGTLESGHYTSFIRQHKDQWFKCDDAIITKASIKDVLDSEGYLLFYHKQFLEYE
UniProt Q9Y5T5, whole entry, looked up: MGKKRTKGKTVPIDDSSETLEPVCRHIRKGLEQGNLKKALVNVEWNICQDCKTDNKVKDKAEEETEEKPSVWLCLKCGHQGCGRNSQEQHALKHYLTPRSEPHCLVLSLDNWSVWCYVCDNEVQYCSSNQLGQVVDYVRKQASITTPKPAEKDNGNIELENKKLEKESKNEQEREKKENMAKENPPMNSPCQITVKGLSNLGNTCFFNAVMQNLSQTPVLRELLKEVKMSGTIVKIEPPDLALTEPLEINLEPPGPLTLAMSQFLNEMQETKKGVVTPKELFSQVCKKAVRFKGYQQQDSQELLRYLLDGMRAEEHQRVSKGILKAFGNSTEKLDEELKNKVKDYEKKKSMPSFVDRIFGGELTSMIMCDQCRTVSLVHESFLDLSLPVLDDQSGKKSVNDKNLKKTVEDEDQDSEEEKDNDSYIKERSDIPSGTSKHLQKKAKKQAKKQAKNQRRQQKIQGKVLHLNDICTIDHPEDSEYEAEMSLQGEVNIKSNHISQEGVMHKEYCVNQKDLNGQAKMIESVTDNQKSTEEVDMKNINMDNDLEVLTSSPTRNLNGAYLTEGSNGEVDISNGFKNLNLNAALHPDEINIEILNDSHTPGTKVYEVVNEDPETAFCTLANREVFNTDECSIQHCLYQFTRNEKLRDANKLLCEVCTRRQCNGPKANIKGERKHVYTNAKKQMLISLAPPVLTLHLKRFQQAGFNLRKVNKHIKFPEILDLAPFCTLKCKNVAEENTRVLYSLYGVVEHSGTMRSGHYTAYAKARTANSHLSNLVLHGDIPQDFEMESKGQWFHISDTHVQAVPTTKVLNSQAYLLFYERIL
UniProt P07919: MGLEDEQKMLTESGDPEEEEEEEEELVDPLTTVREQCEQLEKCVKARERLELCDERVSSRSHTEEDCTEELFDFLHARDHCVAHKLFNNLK
UniProt Q9NYH9: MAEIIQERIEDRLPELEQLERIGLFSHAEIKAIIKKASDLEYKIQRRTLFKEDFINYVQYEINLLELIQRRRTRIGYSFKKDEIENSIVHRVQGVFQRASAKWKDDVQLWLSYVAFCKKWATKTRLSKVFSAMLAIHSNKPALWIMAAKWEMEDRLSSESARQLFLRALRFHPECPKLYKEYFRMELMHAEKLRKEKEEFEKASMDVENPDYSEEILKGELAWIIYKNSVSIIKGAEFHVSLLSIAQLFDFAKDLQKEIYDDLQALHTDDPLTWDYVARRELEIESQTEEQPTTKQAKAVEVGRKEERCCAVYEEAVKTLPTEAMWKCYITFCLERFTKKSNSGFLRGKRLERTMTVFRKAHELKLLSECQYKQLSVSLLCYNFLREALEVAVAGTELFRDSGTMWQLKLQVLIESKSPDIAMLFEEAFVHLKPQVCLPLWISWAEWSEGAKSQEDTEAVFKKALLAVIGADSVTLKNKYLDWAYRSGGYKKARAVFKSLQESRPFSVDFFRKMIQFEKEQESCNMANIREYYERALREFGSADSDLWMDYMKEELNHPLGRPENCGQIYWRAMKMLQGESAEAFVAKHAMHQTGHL
UniProt Q7Z7G8, 1999-2021: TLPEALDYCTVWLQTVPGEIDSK
UniProt Q70CQ2: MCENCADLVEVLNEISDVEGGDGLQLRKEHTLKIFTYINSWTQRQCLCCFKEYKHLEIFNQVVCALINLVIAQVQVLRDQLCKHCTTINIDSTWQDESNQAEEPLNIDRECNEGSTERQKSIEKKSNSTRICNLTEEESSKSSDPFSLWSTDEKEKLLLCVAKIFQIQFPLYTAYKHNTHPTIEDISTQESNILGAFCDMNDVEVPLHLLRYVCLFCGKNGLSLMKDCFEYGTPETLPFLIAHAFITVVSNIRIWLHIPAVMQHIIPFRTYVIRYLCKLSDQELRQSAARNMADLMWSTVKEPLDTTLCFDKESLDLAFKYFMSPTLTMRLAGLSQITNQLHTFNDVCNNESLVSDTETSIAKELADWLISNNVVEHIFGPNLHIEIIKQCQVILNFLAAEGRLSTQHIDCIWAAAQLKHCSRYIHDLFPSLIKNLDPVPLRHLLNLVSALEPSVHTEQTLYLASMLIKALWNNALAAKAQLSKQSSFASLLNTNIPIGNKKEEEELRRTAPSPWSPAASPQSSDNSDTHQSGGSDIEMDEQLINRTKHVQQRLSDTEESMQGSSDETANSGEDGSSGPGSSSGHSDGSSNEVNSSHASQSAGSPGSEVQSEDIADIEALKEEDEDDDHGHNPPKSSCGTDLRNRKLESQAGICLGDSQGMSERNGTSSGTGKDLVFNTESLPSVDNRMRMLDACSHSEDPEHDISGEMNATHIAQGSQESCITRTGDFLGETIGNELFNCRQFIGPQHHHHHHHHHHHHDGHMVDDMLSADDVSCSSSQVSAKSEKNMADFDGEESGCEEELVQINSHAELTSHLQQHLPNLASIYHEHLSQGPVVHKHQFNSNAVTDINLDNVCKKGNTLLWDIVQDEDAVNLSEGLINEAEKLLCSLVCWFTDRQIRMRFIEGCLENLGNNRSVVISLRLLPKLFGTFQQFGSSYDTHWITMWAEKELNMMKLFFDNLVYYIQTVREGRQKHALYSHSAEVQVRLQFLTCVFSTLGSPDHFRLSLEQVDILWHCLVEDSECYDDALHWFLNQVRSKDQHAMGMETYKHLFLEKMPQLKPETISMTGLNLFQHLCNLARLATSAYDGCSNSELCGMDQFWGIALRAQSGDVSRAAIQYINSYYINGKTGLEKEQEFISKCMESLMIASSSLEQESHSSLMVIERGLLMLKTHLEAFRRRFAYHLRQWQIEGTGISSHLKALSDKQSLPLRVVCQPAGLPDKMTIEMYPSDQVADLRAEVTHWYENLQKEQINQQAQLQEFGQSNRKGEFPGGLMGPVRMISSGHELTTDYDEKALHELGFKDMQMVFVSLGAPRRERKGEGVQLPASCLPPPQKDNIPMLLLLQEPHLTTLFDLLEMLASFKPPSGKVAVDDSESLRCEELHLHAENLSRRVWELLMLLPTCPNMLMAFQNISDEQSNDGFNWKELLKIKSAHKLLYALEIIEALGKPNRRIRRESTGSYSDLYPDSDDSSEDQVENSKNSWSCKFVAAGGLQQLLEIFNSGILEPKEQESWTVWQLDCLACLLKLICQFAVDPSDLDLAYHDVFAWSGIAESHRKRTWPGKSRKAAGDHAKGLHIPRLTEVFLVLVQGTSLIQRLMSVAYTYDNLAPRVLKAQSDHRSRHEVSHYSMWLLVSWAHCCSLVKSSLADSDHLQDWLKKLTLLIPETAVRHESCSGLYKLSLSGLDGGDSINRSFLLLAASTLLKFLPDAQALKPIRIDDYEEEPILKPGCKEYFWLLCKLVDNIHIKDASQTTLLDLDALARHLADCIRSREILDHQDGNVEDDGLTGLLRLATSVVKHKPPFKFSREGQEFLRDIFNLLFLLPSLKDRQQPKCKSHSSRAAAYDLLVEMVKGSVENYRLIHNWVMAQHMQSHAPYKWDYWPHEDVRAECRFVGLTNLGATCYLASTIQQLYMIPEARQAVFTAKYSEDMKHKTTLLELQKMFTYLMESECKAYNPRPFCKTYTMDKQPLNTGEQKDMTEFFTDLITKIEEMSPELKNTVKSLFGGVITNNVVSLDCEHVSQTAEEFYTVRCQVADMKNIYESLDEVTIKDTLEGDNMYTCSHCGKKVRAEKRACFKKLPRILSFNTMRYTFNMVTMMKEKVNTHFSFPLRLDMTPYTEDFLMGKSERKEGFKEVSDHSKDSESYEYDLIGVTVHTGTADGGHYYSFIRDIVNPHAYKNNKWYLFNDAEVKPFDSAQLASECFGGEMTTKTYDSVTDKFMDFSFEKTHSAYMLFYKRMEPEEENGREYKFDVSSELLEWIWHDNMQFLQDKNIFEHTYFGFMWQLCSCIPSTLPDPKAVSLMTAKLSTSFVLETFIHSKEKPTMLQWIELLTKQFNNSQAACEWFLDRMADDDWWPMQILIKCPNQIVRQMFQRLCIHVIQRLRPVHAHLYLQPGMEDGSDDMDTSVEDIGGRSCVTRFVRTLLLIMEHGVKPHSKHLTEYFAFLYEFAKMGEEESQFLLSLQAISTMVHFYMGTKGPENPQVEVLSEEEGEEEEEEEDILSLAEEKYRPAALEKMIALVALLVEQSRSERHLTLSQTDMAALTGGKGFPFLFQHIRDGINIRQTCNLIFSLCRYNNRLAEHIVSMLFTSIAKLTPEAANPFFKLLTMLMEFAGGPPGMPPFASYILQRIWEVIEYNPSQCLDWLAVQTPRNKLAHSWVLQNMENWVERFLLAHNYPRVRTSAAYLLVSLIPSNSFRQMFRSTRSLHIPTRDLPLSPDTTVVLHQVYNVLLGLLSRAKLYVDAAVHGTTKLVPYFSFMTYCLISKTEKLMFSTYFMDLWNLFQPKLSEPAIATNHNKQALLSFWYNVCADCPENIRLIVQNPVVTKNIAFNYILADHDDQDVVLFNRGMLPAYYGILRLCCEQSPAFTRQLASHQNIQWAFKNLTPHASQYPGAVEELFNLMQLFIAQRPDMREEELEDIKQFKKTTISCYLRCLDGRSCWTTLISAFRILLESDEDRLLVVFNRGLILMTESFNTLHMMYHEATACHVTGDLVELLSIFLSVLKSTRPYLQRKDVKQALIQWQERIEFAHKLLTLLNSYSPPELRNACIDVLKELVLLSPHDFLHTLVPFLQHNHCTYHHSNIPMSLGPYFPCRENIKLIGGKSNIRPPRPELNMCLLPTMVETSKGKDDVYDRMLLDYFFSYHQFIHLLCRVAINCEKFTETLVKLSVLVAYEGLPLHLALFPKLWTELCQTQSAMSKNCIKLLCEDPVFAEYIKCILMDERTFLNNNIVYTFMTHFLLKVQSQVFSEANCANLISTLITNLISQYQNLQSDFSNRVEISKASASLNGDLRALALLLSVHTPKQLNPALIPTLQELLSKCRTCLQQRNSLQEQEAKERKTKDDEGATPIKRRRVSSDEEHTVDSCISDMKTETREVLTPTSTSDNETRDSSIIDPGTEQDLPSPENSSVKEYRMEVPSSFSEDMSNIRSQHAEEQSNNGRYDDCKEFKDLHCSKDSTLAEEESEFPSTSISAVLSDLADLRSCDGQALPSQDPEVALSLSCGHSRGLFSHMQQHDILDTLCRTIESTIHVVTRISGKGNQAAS
UniProt O60763: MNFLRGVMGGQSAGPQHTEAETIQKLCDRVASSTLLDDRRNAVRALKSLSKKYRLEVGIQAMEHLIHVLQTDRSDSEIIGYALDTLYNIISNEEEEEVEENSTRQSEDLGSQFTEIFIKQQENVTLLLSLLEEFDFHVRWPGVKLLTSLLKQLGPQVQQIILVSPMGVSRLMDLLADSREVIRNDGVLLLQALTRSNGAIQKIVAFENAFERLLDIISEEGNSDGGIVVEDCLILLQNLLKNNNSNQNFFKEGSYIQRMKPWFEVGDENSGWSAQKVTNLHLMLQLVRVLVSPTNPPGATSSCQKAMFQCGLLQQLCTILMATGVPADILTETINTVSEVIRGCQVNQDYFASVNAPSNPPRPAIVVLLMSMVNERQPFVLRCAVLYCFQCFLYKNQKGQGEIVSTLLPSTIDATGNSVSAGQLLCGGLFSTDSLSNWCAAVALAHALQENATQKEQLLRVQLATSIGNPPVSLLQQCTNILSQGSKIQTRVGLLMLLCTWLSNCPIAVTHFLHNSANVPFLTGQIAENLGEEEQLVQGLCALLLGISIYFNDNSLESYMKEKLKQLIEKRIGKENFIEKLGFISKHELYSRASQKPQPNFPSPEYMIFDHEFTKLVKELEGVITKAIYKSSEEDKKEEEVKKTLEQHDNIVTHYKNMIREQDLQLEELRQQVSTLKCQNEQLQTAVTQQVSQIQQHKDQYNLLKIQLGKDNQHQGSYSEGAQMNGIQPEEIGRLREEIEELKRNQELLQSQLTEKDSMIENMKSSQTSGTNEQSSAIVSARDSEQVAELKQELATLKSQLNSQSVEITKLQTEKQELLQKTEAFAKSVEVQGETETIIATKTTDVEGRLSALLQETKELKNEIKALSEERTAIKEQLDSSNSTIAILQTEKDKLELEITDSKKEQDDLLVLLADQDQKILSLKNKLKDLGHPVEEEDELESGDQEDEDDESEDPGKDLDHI

Some of the results follow. The data scatter; read single values as rough.

Compound in the assay: ClCC(=O)N[C@@H]1CCCc2ccccc12
Kind of assay: log2 mean competition ratio of IA-DTB cysteine labelling (DMSO/compound) (log2 ratio); higher = stronger cysteine engagement by compound. Conditions: 50 µM; treatment time: 4 h; cell line lysate: HEK293T. As for the experimental part:
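IA-DTB competitive cysteine chemoproteomics in HEK293T RIPA lysate. Lysates were treated with compound 29 or 30 at 50 or 200 µM for 4 h, then IA-DTB (500 µM, 1 h), trypsin-digested, NeutrAvidin-enriched and analysed by diaPASEF. Competition ratio = intensity DMSO / intensity compound (n=4 treated, n=64 DMSO); binding: mean log2 CR ≥ 1 and p ≤ 0.05 plus QC filters. Target is the cysteine site.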
Consider UGP2 C123, for which the “log2 mean competition ratio” value came out at 0.109.

In the case of UNK C45 (UniProt Q9C0B0), the “log2 mean competition ratio” value came out at 0.0174.

Take USP24 C802 (UniProt Q9UPU5): the “log2 mean competition ratio” value is 0.169.

Take USP24 C1859 (UniProt Q9UPU5): the “log2 mean competition ratio” value was -0.0392.

As for USP22 C44 (UniProt Q9UPT9), the “log2 mean competition ratio” value was 0.508.

On to USP16 C286 (UniProt Q9Y5T5), for which the “log2 mean competition ratio” value was -0.0163.

As for UTP20 C242 (UniProt O75691), the “log2 mean competition ratio” value was determined as 0.188.

Consider ULK1 C927 (UniProt O75385), for which the “log2 mean competition ratio” value is 0.463.

As for UNC45A C535 (UniProt Q9H3U1), the “log2 mean competition ratio” value amounted to 0.247.

On to UQCRH C67 (UniProt P07919), for which the “log2 mean competition ratio” value stood at 0.489.

In the case of UTP6 C175 (UniProt Q9NYH9), the “log2 mean competition ratio” value was found to be 0.287.

In the case of USP24 C14 (UniProt Q9UPU5), the “log2 mean competition ratio” value was -0.00706.

VAC14 C719 (UniProt Q08AM6): the “log2 mean competition ratio” value is -0.097.

For the target VPS13B C2007 (UniProt Q7Z7G8), the “log2 mean competition ratio” value is -0.216.

With UHRF2 C14 (UniProt Q96PU4), the “log2 mean competition ratio” value was 0.076.

On to USP34 C1380 (UniProt Q70CQ2), for which the “log2 mean competition ratio” value came to 0.0685.

Regarding USP48 C39 (UniProt Q86UV5), the “log2 mean competition ratio” value is -0.0688.

In the case of VPS11 C709 (UniProt Q9H270), the “log2 mean competition ratio” value is -0.241.

For UCKL1 C35 (UniProt Q9NWZ5), the “log2 mean competition ratio” value is -0.144.

For VARS1 C663, the “log2 mean competition ratio” value is -0.216.

As to USP24 C1628 (UniProt Q9UPU5), the “log2 mean competition ratio” value worked out at 0.0845.

As to USO1 C303 (UniProt O60763), the “log2 mean competition ratio” value is -0.0502.

For USP4 C7 (UniProt Q13107), the “log2 mean competition ratio” value is -0.13.

As for UBXN7 C160, the “log2 mean competition ratio” value was determined as 0.0102.

Turning to USP34 C2364 (UniProt Q70CQ2), the “log2 mean competition ratio” value was 0.114.

In the case of UQCRH C37 (UniProt P07919), the “log2 mean competition ratio” value is -0.0544.

For the target USPL1 C534, the “log2 mean competition ratio” value was -0.298.

In the case of VAX2 C76, the “log2 mean competition ratio” value was determined as 0.0804.

Take USP34 C856 (UniProt Q70CQ2): the “log2 mean competition ratio” value came out at 0.479.
